For the assay, the target named is HA-tagged human Ago2 (human) (UniProt Q9UKV8). As to the kind of experiment: co-IP; HeLa cells co-transfected with HA-Ago2 and Ubc9; lysates immunoprecipitated with mouse anti-HA antibody or control IgG, probed with anti-HA and anti-Ubc9.

By UniProt entry, the sequences of proteins in these tests, tags left out.
UniProt Q9UKV8: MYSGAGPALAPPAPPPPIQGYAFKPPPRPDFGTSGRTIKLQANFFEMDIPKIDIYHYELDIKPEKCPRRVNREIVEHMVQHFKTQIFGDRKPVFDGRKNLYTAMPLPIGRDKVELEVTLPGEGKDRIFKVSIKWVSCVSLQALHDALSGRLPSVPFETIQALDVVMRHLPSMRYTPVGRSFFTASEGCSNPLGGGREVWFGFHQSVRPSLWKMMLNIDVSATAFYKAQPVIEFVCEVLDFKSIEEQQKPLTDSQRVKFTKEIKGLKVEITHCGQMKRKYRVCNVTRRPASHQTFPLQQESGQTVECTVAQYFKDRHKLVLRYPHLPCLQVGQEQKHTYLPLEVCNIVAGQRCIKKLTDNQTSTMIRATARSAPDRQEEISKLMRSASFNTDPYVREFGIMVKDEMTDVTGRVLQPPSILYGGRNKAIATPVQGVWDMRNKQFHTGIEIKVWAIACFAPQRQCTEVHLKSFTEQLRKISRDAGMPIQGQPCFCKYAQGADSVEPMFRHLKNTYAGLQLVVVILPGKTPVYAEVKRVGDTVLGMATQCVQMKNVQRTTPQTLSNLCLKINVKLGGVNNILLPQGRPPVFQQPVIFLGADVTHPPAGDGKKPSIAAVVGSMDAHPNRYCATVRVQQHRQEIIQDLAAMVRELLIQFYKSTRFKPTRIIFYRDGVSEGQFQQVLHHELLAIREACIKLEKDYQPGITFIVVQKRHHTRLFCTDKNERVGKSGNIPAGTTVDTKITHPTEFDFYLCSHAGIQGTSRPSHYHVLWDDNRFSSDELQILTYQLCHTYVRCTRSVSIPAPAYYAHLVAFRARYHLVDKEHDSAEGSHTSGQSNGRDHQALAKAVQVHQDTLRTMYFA
UniProt P63279: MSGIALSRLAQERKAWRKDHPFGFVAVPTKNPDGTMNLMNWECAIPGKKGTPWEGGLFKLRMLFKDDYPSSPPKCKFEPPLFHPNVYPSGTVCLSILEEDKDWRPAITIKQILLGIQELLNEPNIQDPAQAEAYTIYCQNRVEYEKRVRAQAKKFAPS

These are yes or no findings as the source states them, for the method shown. Binding seen in cells or lysates may run through a third protein. Some entries that bind do so weakly or less than the wild type.

As for “Ubc9 (from UniProt P63279 1-158) (enzyme)”, the binding entry is given as “binds”.

The values are drawn from publication PMC4103873.
